Measurements reported in PubChem BioAssay AID1224830 (NIAID, 2016).
Shown is a random part of about 18,000 reagents tested. About 2,900 of all reagents (16%) were called active. 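Calls are made per well; low scores hint the gene aids the LPS response, high scores that it dampens it.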 Repeated entries: four replicate wells of each siRNA pool.

Screen: 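Genes whose knock-down alters the TNF-alpha reporter response to LPS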 (primary screen)
System: human THP-1 monocytic leukaemia cells, TNF dual-luciferase reporter clone, PMA-differentiated to macrophage-like cells
Reagents: siRNA pool against human genes, 50 nM
Time to read-out: LPS for 4 h, given about 3 days after siRNA transfection
Challenge: bacterial LPS (TLR4 ligand), 10 ng/ml
Read-out: 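TNF firefly reporter luminescence divided by renilla, normalised to the plate median, then turned into a robust z-score for each replicate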
Direction: TNF reporter robust z-score: higher = stronger TNF reporter response to LPS
Active means: 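a well is active when its z-score exceeds 2.8 or falls below -1.5; control wells carry no call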

| gene symbol | TNF reporter robust z-score | outcome |
| --- | --- | --- |
| RTRAF | 0.62 | inactive |
| RTRAF | 1.38 | inactive |
| RTRAF | 0.25 | inactive |
| RTRAF | 0.19 | inactive |
| SERPINB6 | -0.32 | inactive |
| SERPINB6 | 0 | inactive |
| SERPINB6 | -0.4 | inactive |
| SERPINB6 | 0.44 | inactive |
| MINK1 | -0.64 | inactive |
| MINK1 | -0.54 | inactive |
| MINK1 | -1.23 | inactive |
| MINK1 | -0.24 | inactive |
| CTDSP2 | 0.98 | inactive |
| CTDSP2 | 2.41 | inactive |
| CTDSP2 | 1.43 | inactive |
| CTDSP2 | 1.64 | inactive |
| SERPINF2 | -0.22 | inactive |
| SERPINF2 | -0.02 | inactive |
| SERPINF2 | 0.36 | inactive |
| SERPINF2 | 0.11 | inactive |
| FOXO1 | 0.64 | inactive |
| FOXO1 | 0.98 | inactive |
| FOXO1 | -0.13 | inactive |
| FOXO1 | 1.18 | inactive |
| KIF27 | 0.57 | inactive |
| KIF27 | -0.12 | inactive |
| KIF27 | -0.34 | inactive |
| KIF27 | -1.99 | active |
| LZTS3 | -1.39 | inactive |
| LZTS3 | -0.59 | inactive |
| LZTS3 | -0.77 | inactive |
| LZTS3 | -0.42 | inactive |
| EPB41L1 | 1.15 | inactive |
| EPB41L1 | -0.03 | inactive |
| EPB41L1 | 0.24 | inactive |
| EPB41L1 | 0.36 | inactive |
| SSX4 | -0.38 | inactive |
| SSX4 | -0.15 | inactive |
| SSX4 | -1.52 | active |
| SSX4 | -0.56 | inactive |
| PCDH15 | -1.06 | inactive |
| PCDH15 | -0.75 | inactive |
| PCDH15 | -0.38 | inactive |
| PCDH15 | -0.16 | inactive |
| RBM3 | -0.2 | inactive |
| RBM3 | -1.48 | inactive |
| RBM3 | -0.54 | inactive |
| RBM3 | 0.08 | inactive |
| NUPR1 | 0.98 | inactive |
| NUPR1 | 1.02 | inactive |
| NUPR1 | 0.96 | inactive |
| NUPR1 | 1.08 | inactive |
| NLRP6 | 1.48 | inactive |
| NLRP6 | 2.19 | inactive |
| NLRP6 | 0.68 | inactive |
| NLRP6 | 0.53 | inactive |
| TBKBP1 | -0.3 | inactive |
| TBKBP1 | 0.14 | inactive |
| TBKBP1 | -0.58 | inactive |
| TBKBP1 | -0.27 | inactive |
| GSTZ1 | -0.95 | inactive |
| GSTZ1 | -0.54 | inactive |
| GSTZ1 | -0.86 | inactive |
| GSTZ1 | 0.28 | inactive |
| PFDN5 | -0.07 | inactive |
| PFDN5 | -0.36 | inactive |
| PFDN5 | -0.65 | inactive |
| PFDN5 | -0.6 | inactive |
| ZIK1 | 2.49 | inactive |
| ZIK1 | 2.61 | inactive |
| ZIK1 | 3.34 | active |
| ZIK1 | 8.87 | active |
| ACTR10 | -0.42 | inactive |
| ACTR10 | -0.34 | inactive |
| ACTR10 | -0.56 | inactive |
| ACTR10 | 0.32 | inactive |
| SLC9A5 | 1.13 | inactive |
| SLC9A5 | 1.64 | inactive |
| SLC9A5 | 0.86 | inactive |
| SLC9A5 | 2.28 | inactive |
| KIAA0586 | -1.34 | inactive |
| KIAA0586 | -1.09 | inactive |
| KIAA0586 | -1.57 | active |
| KIAA0586 | -0.81 | inactive |
| PAK1 | 0.55 | inactive |
| PAK1 | 0.65 | inactive |
| PAK1 | 0.26 | inactive |
| PAK1 | 0.21 | inactive |
| YAE1 | 0.48 | inactive |
| YAE1 | 0.62 | inactive |
| YAE1 | 0.66 | inactive |
| YAE1 | 1.24 | inactive |
| ACTL7B | 0.45 | inactive |
| ACTL7B | -0.23 | inactive |
| ACTL7B | 0.69 | inactive |
| ACTL7B | 1.34 | inactive |
| HESX1 | 0.93 | inactive |
| HESX1 | 1.44 | inactive |
| HESX1 | 1.39 | inactive |
| HESX1 | 2.77 | inactive |
| ANO7 | -1.57 | active |
| ANO7 | -1.26 | inactive |
| ANO7 | -1.45 | inactive |
| ANO7 | -1.02 | inactive |
| SS18L2 | -1.01 | inactive |
| SS18L2 | -1.19 | inactive |
| SS18L2 | -0.81 | inactive |
| SS18L2 | -0.26 | inactive |
| MIMS1 | 0.62 | inactive |
| MIMS1 | 1.31 | inactive |
| MIMS1 | 0.78 | inactive |
| MIMS1 | 2.43 | inactive |

Targets above whose target name begins with S or s (20):
| gene symbol | TNF reporter robust z-score | outcome |
| --- | --- | --- |
| SERPINB6 | -0.32 | inactive |
| SERPINB6 | 0 | inactive |
| SERPINB6 | -0.4 | inactive |
| SERPINB6 | 0.44 | inactive |
| SERPINF2 | -0.22 | inactive |
| SERPINF2 | -0.02 | inactive |
| SERPINF2 | 0.36 | inactive |
| SERPINF2 | 0.11 | inactive |
| SSX4 | -0.38 | inactive |
| SSX4 | -0.15 | inactive |
| SSX4 | -1.52 | active |
| SSX4 | -0.56 | inactive |
| SLC9A5 | 1.13 | inactive |
| SLC9A5 | 1.64 | inactive |
| SLC9A5 | 0.86 | inactive |
| SLC9A5 | 2.28 | inactive |
| SS18L2 | -1.01 | inactive |
| SS18L2 | -1.19 | inactive |
| SS18L2 | -0.81 | inactive |
| SS18L2 | -0.26 | inactive |
